The results in this text go back to patent US20250281585A1.

These are yes or no findings as the source states them, for the method shown. Some results given as binding are weak or reduced against the parent protein; the word gives no strength. Tags and fused reporters may be left off the sequences shown.

This test deals with T1, recombinant mouse IL-1RI Fc chimera (R&D 771-MR-100) (mouse) (UniProt P13504).
T1 sequence (looked up): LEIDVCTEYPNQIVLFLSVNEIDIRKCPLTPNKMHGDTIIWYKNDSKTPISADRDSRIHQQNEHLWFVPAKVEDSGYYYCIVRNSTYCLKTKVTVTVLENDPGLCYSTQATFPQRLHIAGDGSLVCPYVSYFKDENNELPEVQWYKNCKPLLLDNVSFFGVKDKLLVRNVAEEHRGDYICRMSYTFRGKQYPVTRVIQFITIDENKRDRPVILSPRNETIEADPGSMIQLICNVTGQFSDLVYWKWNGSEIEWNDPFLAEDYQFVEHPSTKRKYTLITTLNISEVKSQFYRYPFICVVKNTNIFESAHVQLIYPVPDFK
Kind of test: ELISA on coated mouse IL-1RI Fc chimera, biotinylated anti-fIL-1β detection antibody.

B1: commercially available recombinant feline IL-1β protein (R&D Systems 1796-FL-010) (ligand, UniProt P41687 116-267, looked up)
chain: AAIQSQDYTFRDISQKSLVLSGSYELRALHLNGQNMNQQVVFRMSFVHGEENSKKIPVVLCIKKNNLYLSCVMKDGKPTLQLEMLDPKVYPKKKMEKRFVFNKTEIKGNVEFESSQFPNWYISTSQAEEMPVFLGNTKGGQDITDFIMESAS
For B1, the binding result was “binds”.
